Laboratory results taken from PMC5562840, “TRPM6 and TRPM7 differentially contribute to the relief of heteromeric TRPM6/7 channels from inhibition by cytosolic Mg^2+ and Mg·ATP” (Scientific Reports, 2017).
These are yes or no findings as the source states them, for the method shown. In cells and extracts the contact can be indirect. Some entries that bind do so weakly or less than the wild type. Sequences can lack the tags named with a protein. Values belong to the molecule of their own block, whether it stands above or below them.

Sequences of proteins named here, by UniProt entry; tags and fusion partners are left off.
UniProt Q923J1: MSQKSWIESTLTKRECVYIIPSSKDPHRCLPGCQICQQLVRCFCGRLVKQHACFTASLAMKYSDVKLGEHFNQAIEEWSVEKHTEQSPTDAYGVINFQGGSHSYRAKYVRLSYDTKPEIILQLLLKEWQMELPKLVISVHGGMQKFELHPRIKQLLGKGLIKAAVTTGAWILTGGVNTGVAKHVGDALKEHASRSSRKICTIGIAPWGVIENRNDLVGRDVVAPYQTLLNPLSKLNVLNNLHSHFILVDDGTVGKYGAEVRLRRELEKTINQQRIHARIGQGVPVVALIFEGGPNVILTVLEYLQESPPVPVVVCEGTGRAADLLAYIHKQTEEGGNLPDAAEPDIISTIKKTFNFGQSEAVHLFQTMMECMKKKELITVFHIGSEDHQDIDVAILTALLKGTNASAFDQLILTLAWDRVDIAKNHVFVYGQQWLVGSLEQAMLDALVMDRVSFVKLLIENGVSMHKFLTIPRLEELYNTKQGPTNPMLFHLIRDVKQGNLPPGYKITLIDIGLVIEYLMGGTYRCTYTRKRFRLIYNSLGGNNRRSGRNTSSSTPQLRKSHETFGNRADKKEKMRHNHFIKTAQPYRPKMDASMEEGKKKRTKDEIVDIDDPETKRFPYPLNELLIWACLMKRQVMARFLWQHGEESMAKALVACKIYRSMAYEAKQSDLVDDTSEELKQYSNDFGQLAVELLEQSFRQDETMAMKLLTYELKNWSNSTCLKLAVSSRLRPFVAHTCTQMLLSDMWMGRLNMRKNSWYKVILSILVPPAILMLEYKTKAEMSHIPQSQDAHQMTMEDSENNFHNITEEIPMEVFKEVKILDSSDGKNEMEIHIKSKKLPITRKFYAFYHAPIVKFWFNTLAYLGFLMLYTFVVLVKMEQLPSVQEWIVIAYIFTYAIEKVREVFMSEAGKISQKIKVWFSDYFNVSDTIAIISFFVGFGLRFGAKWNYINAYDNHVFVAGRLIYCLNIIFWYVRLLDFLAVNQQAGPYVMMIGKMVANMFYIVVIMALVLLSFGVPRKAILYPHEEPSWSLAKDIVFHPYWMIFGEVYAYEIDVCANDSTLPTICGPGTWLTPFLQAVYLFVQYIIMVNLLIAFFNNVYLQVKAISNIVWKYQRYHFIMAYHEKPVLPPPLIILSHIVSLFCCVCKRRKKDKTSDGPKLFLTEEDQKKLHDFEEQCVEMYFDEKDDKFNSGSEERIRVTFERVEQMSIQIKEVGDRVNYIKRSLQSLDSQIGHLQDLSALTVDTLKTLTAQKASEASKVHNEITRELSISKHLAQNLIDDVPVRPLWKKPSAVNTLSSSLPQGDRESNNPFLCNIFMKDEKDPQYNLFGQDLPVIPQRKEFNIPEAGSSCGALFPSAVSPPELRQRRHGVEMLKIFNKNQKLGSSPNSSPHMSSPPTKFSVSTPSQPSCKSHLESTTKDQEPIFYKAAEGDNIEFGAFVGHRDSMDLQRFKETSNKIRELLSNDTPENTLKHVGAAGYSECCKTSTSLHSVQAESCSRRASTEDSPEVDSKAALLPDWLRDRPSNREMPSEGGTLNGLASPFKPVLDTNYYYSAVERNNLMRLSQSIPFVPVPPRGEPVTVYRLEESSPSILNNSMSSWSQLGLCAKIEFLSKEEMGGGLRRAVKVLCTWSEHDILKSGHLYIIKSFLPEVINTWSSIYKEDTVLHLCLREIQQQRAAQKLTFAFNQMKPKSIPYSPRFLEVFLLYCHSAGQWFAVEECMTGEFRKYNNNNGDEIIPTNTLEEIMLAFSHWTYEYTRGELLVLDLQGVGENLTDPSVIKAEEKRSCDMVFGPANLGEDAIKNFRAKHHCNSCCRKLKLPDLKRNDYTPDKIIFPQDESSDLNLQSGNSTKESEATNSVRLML
UniProt Q8CIR4: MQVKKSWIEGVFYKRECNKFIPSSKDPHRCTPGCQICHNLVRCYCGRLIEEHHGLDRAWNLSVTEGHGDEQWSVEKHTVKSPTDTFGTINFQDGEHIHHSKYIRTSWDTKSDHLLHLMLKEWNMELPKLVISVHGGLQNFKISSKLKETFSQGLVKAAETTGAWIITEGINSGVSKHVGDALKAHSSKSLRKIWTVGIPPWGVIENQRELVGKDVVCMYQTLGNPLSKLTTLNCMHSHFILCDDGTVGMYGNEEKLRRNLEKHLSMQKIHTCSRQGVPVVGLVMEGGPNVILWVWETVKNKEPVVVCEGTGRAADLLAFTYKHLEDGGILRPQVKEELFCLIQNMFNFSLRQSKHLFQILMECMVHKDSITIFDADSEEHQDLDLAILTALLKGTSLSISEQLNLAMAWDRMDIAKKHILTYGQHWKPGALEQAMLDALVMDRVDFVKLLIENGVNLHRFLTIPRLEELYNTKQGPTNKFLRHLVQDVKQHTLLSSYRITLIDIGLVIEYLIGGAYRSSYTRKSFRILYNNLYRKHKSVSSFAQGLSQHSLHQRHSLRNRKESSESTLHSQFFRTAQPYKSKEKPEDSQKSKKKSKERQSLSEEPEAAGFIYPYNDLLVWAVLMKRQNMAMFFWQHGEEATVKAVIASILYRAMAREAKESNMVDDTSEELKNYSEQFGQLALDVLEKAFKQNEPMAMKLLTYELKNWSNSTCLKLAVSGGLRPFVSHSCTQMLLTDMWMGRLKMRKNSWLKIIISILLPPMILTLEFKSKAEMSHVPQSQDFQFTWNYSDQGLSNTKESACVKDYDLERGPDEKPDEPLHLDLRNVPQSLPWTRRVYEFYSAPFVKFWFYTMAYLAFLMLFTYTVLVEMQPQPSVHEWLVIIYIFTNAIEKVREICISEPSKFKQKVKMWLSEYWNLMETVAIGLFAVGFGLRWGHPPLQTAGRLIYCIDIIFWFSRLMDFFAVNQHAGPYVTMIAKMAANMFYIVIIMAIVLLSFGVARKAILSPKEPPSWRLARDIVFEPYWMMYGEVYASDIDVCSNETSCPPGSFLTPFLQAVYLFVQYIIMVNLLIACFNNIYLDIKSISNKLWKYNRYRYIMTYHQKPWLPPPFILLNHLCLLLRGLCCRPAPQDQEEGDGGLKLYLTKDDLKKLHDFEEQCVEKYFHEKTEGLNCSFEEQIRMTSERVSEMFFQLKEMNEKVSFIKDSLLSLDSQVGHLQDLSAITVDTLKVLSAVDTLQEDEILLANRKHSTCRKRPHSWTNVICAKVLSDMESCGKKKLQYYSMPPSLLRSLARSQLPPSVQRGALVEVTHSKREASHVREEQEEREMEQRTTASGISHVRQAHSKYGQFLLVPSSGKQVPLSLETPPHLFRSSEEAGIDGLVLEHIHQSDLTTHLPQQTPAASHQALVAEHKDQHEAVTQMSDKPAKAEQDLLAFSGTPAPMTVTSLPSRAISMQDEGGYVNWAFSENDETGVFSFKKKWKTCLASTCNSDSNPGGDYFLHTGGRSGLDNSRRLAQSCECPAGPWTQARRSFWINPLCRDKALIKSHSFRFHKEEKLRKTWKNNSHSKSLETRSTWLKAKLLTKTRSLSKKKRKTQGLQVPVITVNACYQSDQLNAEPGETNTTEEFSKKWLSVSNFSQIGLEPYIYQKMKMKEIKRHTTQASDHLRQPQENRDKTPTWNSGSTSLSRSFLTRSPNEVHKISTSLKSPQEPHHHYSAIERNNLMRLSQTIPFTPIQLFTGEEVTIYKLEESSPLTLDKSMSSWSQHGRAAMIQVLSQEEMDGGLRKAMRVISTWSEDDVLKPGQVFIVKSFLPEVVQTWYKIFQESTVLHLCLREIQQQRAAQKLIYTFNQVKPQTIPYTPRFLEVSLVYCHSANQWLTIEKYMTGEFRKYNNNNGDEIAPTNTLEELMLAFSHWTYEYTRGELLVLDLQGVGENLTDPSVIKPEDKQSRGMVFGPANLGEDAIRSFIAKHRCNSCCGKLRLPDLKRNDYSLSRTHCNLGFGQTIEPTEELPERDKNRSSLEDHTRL

Target: mouse TRPM7 (mTRPM7) fused to a myc tag (mTRPM7-myc) (mouse) (UniProt Q923J1)
Experiment: co-IP; HEK 293 cells co-transfected with mTRPM7-myc and a YFP-tagged channel; lysis in PBS with 1% Triton X-100 and protease inhibitors; anti-myc 9E10 antibody on Protein A/G magnetic beads, overnight at 4 °C; blots with anti-GFP (cross-reacting with YFP) or anti-myc

- binding: binds
Molecule: mouse TRPM6 with a C-terminal yellow fluorescent protein tag (mTRPM6-YFP) (from UniProt Q8CIR4 1-2028)

- binding: no binding
B1: mTRPM5 containing a YFP tag (mTRPM5-YFP) (protein, UniProt Q9JJH7 1-1158)
chain: MQTTQSSCPGSPPDTEDGWEPILCRGEINFGGSGKKRGKFVKVPSSVAPSVLFELLLTEWHLPAPNLVVSLVGEERPLAMKSWLRDVLRKGLVKAAQSTGAWILTSALHVGLARHVGQAVRDHSLASTSTKIRVVAIGMASLDRILHRQLLDGVHQKEDTPIHYPADEGNIQGPLCPLDSNLSHFILVESGALGSGNDGLTELQLSLEKHISQQRTGYGGTSCIQIPVLCLLVNGDPNTLERISRAVEQAAPWLILAGSGGIADVLAALVSQPHLLVPQVAEKQFREKFPSECFSWEAIVHWTELLQNIAAHPHLLTVYDFEQEGSEDLDTVILKALVKACKSHSQEAQDYLDELKLAVAWDRVDIAKSEIFNGDVEWKSCDLEEVMTDALVSNKPDFVRLFVDSGADMAEFLTYGRLQQLYHSVSPKSLLFELLQRKHEEGRLTLAGLGAQQARELPIGLPAFSLHEVSRVLKDFLHDACRGFYQDGRRMEERGPPKRPAGQKWLPDLSRKSEDPWRDLFLWAVLQNRYEMATYFWAMGREGVAAALAACKIIKEMSHLEKEAEVARTMREAKYEQLALDLFSECYGNSEDRAFALLVRRNHSWSRTTCLHLATEADAKAFFAHDGVQAFLTKIWWGDMATGTPILRLLGAFTCPALIYTNLISFSEDAPQRMDLEDLQEPDSLDMEKSFLCSRGGQLEKLTEAPRAPGDLGPQAAFLLTRWRKFWGAPVTVFLGNVVMYFAFLFLFTYVLLVDFRPPPQGPSGSEVTLYFWVFTLVLEEIRQGFFTDEDTHLVKKFTLYVEDNWNKCDMVAIFLFIVGVTCRMVPSVFEAGRTVLAIDFMVFTLRLIHIFAIHKQLGPKIIIVERMMKDVFFFLFFLSVWLVAYGVTTQALLHPHDGRLEWIFRRVLYRPYLQIFGQIPLDEIDEARVNCSLHPLLLESSASCPNLYANWLVILLLVTFLLVTNVLLMNLLIAMFSYTFQVVQGNADMFWKFQRYHLIVEYHGRPALAPPFILLSHLSLVLKQVFRKEAQHKRQHLERDLPDPLDQKIITWETVQKENFLSTMEKRRRDSEGEVLRKTAHRVDLIAKYIGGLREQEKRIKCLESQANYCMLLLSSMTDTLAPGGTYSSSQNCGCRSQPASARDREYLESGLPPSDT
